Marks after values point to notes of the source that are not given here. Some entries of the source have several records that differ or are many. They are shown here; other results are not. The source may hold further records. The values listed for one entry differ for a reason that is not stated; they may come from other doses, times, organisms or constructs than stated.
Columns and labels:
[1] = Pharmacokinetic study of Compound 4: plasma concentrations (LC/MS); conditions: iv (10 mg/kg) Compound 4, 3h, individual mice
Procedure: (1) Forty-eight healthy Bar b/c mice, each weighing approximately 20 g, were taken and divided into 3 groups. Blank control group (6 mice), oral gavage administration group (Compound 4 dose: 50 mg/kg, 21 mice), and tail vein injection administration group (Compound 4 dose: 10 mg/kg, 21 mice) (2) For the oral gavage group, blood samples were collected at 5 min, 15 min, 30 min, 1 h, 3 h, 8 h, and 24 h after administration. For the intravenous injection group, blood samples were collected at 2 min, 5 min, 15 min, 30 min, 1 h, 3 h, 8 h, and 24 h after administration. Blood was collected from mice via eyeball removal and placed in anticoagulant tubes containing sodium heparin. The samples were immediately centrifuged at 5000 rpm at low temperature (4°C) for 10 min to obtain plasma samples. The samples were stored in a -80°C freezer for analysis. Three mice were used per time point. (3) The mouse was fixed on a foam board. The skin on the chest was lifted with forceps, and the thoracic skin and ribs were cut open with scissors to expose the heart and liver. The auricle was then cut open. A syringe needle was inserted into the left ventricle of the mouse, and normal saline was perfused for approximately 1 min (10-20 mL) until the mouse's limbs, liver, and tongue turned pale. […] (4) The contents of Compound 4 and Compound 1 in peripheral blood and tissues were detected by LC/MS. […]

[2] = Distribution of Compound 4 and released Compound 1 in tissues (brain, pancreas, rectum, liver, lung; LC/MS); conditions: individual mice
Procedure: (1) Forty-eight healthy Bar b/c mice, each weighing approximately 20 g, were taken and divided into 3 groups. Blank control group (6 mice), oral gavage administration group (Compound 4 dose: 50 mg/kg, 21 mice), and tail vein injection administration group (Compound 4 dose: 10 mg/kg, 21 mice) (2) For the oral gavage group, blood samples were collected at 5 min, 15 min, 30 min, 1 h, 3 h, 8 h, and 24 h after administration. For the intravenous injection group, blood samples were collected at 2 min, 5 min, 15 min, 30 min, 1 h, 3 h, 8 h, and 24 h after administration. Blood was collected from mice via eyeball removal and placed in anticoagulant tubes containing sodium heparin. The samples were immediately centrifuged at 5000 rpm at low temperature (4°C) for 10 min to obtain plasma samples. The samples were stored in a -80°C freezer for analysis. Three mice were used per time point. (3) The mouse was fixed on a foam board. The skin on the chest was lifted with forceps, and the thoracic skin and ribs were cut open with scissors to expose the heart and liver. The auricle was then cut open. A syringe needle was inserted into the left ventricle of the mouse, and normal saline was perfused for approximately 1 min (10-20 mL) until the mouse's limbs, liver, and tongue turned pale. Brain collection: The skin on the head was cut open to expose the white skull. The cartilage was cut, the skull cap was carefully pried open to expose the white brain, and the entire brain was dissected out. Tissues such as the pancreas, liver, lung, and rectum were also collected. The samples were stored in a -80°C freezer for analysis. (4) The contents of Compound 4 and Compound 1 in peripheral blood and tissues were detected by LC/MS. MS/MS information

[3] = iv (10 mg/kg) Compound 4, 30min, 10 mg/kg
[4] = iv (10 mg/kg) Compound 4, 3h, 10 mg/kg

**Q.** With `C=C1C(=O)OC2C1CCC(CC(F)(F)F)=CCCC1(C)OC21` (centres unmarked) as the compound, how does the “Plasma Concentrations of the Released Active Substance Compound 1” value [1] read?
**A.** 2.18* ng/mL and 2.95* ng/mL

**Q.** And the “Concentrations of Compound 1 in Pancreatic Tissue” value ([2]; iv (10 mg/kg) Compound 4, 15min, 10 mg/kg)?
**A.** 9.82* ng/g and 18.5* ng/g

**Q.** And the “Concentration of Compound 1 in the Lung” value [2, 3]?
**A.** 5.76* ng/g, 6.21* ng/g, 2.23* ng/g

**Q.** What about the “Concentrations of Compound 1 in Pancreatic Tissue” value [2, 3] of the same compound?
**A.** 5.60* ng/g, 15.2* ng/g, 14.2* ng/g

**Q.** What about the “Concentrations of Compound 1 in Rectum” value ([2]; iv (10 mg/kg) Compound 4, 1h, 10 mg/kg) of the same compound?
**A.** 11.0* ng/g and 5.37* ng/g

**Q.** And the “Concentration of Compound 1 in Liver” value [2, 4]?
**A.** 2.32* ng/g and 4.09* ng/g

**Q.** And the “Concentrations of Compound 1 in Rectum” value [2, 4]?
**A.** 0.874* ng/g and 0.305* ng/g

**Q.** What about the “Concentration of Compound 1 in the Lung” value ([2]; po (50 mg/kg) Compound 4, 3h, 50 mg/kg) of the same compound?
**A.** 14.7* ng/g, 18.7* ng/g, 7.19* ng/g

— EP4840863A1, “FLUORINE-CONTAINING PARTHENOLIDE DERIVATIVE, PREPARATION METHOD THEREFOR AND USE THEREOF” (dated 2026)
